Assay results as given in the supplement of paper PMC10735217.
Structures can show the parent of a compound that is named as a salt. This is one part of the list. This data set is noisy: repeats of one test often differ as much as different tests do.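 The human kidney-derived cells carry a stably integrated construct of eight TEAD-binding elements driving luciferase, read by luminescence in a drug-repurposing library screen. A compound counts as a hit when its signal is more than five robust Z scores above the plate mean.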

System: HEK293A TEAD-LUC reporter
Assay: TEAD-luciferase reporter activity (YAP activation), robust Z score vs plate; higher = stronger YAP/TEAD activation
Conditions: 24 h

Row | Compound | TEAD-luciferase reporter activity (compound concentration: 200 nM) | TEAD-luciferase reporter activity (compound concentration: 10 uM) | TEAD-luciferase reporter activity (compound concentration: 2 uM)
1 | O=C(O)CCc1nc(-c2ccccc2)c(-c2ccccc2)o1 | inactive: 0.319 | inactive: 1.36 | 
2 | COc1cc2ncnc(N3CCN(C(=O)OCC(C)(C)O)CC3)c2cc1OC | inactive: 0.82 | inactive: 0.616 | inactive: -0.291
3 | CCN(C)c1nc2ccc(C(=O)N(CC(C)C)C[C@@H](O)[C@H](Cc3ccccc3)NC(=O)OCc3cncs3)cc2o1 | inactive: 2.03 | inactive: -1.04 | inactive: 0.251
4 | CCCC(=O)O[C@H]1[C@@H]([N+]2(C)CCCCC2)C[C@H]2[C@@H]3CC[C@H]4C[C@H](OC(C)=O)[C@@H](N5CCCCC5)C[C@]4(C)[C@H]3CC[C@@]21C | inactive: -0.923 | inactive: 0.369 | inactive: -0.0893
5 | N#Cc1ccc2c(c1)[C@@H]1CN(CCCCNC(=O)c3ccc(-c4ccccc4)cc3)C[C@H]1CO2 | inactive: -0.706 | inactive: 1.82 | inactive: -1.68
6 | C/C(O)=C(\C#N)C(=O)Nc1ccc(C(F)(F)F)cc1 [Teriflunomide] |  |  | inactive: 1.48
7 | C/C(O)=C(\C#N)C(=O)Nc1ccc(C(F)(F)F)cc1 [2-cyano-3-hydroxy-n-[4-(Trifluoromethyl)phenyl]but-2-enamide] | inactive: 4.13 | active: 5.41 | 
8 | O=C(O)[C@H](O)Cc1ccc(O)c(O)c1 [alpha-Hydroxyhydrocaffeic acid] | inactive: 0.0632 | inactive: -1.36 | inactive: -1.5
9 | Nc1nc(=O)n([C@H]2C[C@H](O)[C@@H](CO)O2)cc1F | inactive: -2.36 | inactive: 1.17 | inactive: -0.912
10 | CC(C)(C)OC(=O)NCCN1CC2CN(CCOc3ccc(C#N)cc3F)CC(C1)O2 | inactive: -2.09 | inactive: 1.11 | inactive: 0.119
11 | O=C(Nc1ccc(C(=O)O)c(O)c1)c1ccccc1 | inactive: 0.0327 | inactive: -0.253 | inactive: -0.00896
12 | CC(C)=CCC/C(C)=C/CNCCNC1C2CC3CC(C2)CC1C3 (stereo not drawn) | inactive: 1.01 | inactive: 1.74 | inactive: -1.46
13 | C[C@@H]1CN(c2ccc(OC(F)(F)F)cc2)C[C@H](C)N1S(=O)(=O)c1cccc2c1CC(C(=O)O)C2 (stereo partly drawn) | inactive: 2.35 | inactive: 0.705 | inactive: 0.133
14 | CCC1CN2C(C)=Nc3c(C)nn(C)c3C2=N1 (stereo not drawn) | inactive: -0.328 | inactive: -0.853 | inactive: -1.56
15 | C[C@](O)(C(=O)Nc1cccc2c1C(=O)c1sccc1CS2(=O)=O)C(F)(F)F | inactive: -1.15 | inactive: 3.3 | inactive: -0.022
16 | O=C(O)CCCCO/N=C(/c1cccnc1)c1cccc(C(F)(F)F)c1 [Ridogrel] | inactive: 0.375 | inactive: 1.14 | inactive: -0.471
17 | CC(C)(Oc1ccc(C(=O)c2ccc(Cl)cc2)cc1)C(=O)O [Choline fenofibrate] | inactive: 1.73 | inactive: 0.091 | inactive: -1.6
18 | Nc1ccc(CC(C(=O)O)c2cn(C3CCCCC3)cn2)cn1 (stereo not drawn) | inactive: 0.0388 | inactive: 2.73 | inactive: -1.08
19 | CN(C)CCN(C)n1cc(-c2ccccc2)c2ccccc21 | inactive: -1.25 | inactive: -0.288 | inactive: -0.224
20 | CN(C)[C@@H]1C(=O)C(C(=O)NCNCCCC[C@H](N)C(=O)O)C(=O)[C@@]2(O)C(=O)C3C(=O)c4c(O)cccc4[C@@](C)(O)[C@H]3C[C@@H]12 (stereo partly drawn) [Ciclolysal] | inactive: -1.58 | inactive: 0.315 | inactive: -0.374
21 | CCOC(=O)C1=C(c2ccccc2)c2ccc(OCCCc3ccccc3)cc2/C1=[N+](\C)[O-] | inactive: 0.96 | inactive: 1.42 | inactive: -0.216
22 | CC(C)(C)NCC(O)c1cc(O)cc(O)c1 (stereo not drawn) | inactive: -0.35 | inactive: 0.0377 | 
23 | CC(C)(C)NCC(O)c1cc(O)cc(O)c1 (stereo not drawn) [terbutaline gel] |  |  | inactive: 0.865
24 | CC(C)Cc1ccc(C(C)C(=O)OCCN2CCN(c3cccc(Cl)c3)CC2)cc1 (stereo not drawn) [Lobuprofen hydrochloride] | inactive: 0.839 | inactive: 2.99 | inactive: 2.06
25 | CN1CC[C@H](N(C)C(=O)N2CC(c3cc(F)ccc3F)=C[C@@]2(CO)c2ccccc2)[C@H](F)C1 | inactive: -0.212 | inactive: 0.625 | inactive: -0.839

Two entries drawn at random from the list so far:
Row | Compound | TEAD-luciferase reporter activity (compound concentration: 200 nM) | TEAD-luciferase reporter activity (compound concentration: 10 uM) | TEAD-luciferase reporter activity (compound concentration: 2 uM)
19 | CN(C)CCN(C)n1cc(-c2ccccc2)c2ccccc21 | inactive: -1.25 | inactive: -0.288 | inactive: -0.224
15 | C[C@](O)(C(=O)Nc1cccc2c1C(=O)c1sccc1CS2(=O)=O)C(F)(F)F | inactive: -1.15 | inactive: 3.3 | inactive: -0.022
